Test in all cases: co-IP; lysates of human AVICs in IP lysis buffer, incubated with specific antibodies for 4 h, Protein A/G Sepharose beads overnight at 4 °C, three washes with PBS, western blot; for Fig. 7d and Supplementary Fig. 7b cells with Dkk2 overexpression or Dkk2 knockdown
For assay [1], the target named is DEAD-box helicase 5 (DDX5) (human (endogenous in human AVICs)) (UniProt P17844).
The target in assay [2] is T1, Kremen1 (Krm1) (human (endogenous in human AVICs)) (UniProt Q96MU8).
T1 sequence: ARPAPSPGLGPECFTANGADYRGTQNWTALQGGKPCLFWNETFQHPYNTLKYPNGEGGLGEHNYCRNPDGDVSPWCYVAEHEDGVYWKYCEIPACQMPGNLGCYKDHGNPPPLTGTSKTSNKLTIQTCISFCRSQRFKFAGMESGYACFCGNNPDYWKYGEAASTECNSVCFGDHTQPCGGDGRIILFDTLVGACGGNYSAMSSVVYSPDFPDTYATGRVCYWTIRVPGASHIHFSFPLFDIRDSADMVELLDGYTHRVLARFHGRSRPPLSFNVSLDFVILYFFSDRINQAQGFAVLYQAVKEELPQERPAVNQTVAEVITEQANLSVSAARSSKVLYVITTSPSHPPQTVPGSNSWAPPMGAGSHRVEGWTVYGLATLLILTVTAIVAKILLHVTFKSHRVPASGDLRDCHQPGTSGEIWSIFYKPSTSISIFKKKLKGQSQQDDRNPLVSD

Sequences of proteins named here, by UniProt entry; tags and fusion partners are left off. Residues count along the entry.
UniProt P17844: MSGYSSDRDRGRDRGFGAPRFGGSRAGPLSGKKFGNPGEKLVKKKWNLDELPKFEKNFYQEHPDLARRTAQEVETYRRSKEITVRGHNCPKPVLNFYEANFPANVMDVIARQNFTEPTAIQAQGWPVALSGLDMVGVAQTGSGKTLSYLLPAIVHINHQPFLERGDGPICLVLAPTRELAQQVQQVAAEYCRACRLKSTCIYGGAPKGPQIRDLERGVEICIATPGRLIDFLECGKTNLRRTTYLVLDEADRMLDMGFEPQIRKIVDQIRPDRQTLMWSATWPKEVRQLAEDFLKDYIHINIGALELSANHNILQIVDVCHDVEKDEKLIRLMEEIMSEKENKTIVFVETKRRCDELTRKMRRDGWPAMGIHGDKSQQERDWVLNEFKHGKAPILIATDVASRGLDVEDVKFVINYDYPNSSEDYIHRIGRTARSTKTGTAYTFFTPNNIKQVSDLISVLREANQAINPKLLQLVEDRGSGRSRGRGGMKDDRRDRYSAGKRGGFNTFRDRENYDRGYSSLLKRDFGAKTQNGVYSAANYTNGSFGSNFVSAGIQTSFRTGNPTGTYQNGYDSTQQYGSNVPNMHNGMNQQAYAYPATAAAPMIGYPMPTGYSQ
UniProt O75581, residues 20-1613: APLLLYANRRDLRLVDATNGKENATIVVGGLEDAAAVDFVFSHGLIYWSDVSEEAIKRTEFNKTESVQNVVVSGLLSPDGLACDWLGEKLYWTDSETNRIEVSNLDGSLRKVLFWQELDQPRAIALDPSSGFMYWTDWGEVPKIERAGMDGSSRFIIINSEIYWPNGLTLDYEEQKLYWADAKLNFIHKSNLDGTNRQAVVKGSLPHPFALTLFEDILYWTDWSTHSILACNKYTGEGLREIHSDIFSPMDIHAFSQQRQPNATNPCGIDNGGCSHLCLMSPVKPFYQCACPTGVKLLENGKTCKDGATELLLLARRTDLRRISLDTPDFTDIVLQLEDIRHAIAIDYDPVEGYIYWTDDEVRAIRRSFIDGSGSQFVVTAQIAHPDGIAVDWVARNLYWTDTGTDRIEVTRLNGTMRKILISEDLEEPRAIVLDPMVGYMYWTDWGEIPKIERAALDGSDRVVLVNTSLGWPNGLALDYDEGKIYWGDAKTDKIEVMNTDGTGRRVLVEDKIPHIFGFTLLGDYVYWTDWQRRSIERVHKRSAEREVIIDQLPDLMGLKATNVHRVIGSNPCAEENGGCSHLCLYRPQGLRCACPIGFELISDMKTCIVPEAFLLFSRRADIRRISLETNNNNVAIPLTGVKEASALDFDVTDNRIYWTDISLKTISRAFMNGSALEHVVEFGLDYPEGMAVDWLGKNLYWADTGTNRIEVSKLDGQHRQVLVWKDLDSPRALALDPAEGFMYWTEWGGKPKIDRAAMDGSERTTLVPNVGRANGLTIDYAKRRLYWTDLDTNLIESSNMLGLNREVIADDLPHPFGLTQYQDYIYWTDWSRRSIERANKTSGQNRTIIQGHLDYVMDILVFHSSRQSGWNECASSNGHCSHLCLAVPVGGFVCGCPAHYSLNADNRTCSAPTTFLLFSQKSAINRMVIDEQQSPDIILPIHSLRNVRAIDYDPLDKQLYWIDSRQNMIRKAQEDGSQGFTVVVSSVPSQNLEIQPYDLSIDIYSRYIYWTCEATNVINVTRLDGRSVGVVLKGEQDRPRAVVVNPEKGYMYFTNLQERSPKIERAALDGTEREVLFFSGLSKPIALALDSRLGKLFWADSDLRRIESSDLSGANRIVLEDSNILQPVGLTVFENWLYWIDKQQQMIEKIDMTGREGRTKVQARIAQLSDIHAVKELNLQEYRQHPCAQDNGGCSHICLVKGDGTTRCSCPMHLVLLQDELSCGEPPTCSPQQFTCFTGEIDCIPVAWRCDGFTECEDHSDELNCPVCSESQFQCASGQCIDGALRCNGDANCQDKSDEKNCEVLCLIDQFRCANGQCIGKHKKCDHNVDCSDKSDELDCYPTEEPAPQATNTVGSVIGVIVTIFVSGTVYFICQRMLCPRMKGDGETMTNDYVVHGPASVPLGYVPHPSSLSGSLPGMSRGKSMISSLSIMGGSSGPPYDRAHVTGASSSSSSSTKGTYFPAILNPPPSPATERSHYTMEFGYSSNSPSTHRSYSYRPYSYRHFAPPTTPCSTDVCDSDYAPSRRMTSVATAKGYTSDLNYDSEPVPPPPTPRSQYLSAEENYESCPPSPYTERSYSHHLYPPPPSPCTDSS
UniProt Q86U44: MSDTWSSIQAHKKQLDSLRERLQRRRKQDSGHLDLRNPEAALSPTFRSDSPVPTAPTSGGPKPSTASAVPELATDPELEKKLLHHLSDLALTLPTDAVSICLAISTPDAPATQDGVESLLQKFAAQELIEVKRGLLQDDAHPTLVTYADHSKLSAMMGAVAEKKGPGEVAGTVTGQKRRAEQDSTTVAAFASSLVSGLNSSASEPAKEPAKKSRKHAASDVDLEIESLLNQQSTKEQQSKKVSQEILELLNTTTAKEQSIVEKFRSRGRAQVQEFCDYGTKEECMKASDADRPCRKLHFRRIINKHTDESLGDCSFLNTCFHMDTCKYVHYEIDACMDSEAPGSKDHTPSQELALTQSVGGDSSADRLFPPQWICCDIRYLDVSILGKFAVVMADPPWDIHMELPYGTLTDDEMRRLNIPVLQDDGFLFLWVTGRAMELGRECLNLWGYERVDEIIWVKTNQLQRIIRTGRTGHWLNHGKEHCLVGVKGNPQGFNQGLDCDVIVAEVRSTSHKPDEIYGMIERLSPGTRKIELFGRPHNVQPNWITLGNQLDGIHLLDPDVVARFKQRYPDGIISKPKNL
UniProt Q9UBP4, residues 22-350: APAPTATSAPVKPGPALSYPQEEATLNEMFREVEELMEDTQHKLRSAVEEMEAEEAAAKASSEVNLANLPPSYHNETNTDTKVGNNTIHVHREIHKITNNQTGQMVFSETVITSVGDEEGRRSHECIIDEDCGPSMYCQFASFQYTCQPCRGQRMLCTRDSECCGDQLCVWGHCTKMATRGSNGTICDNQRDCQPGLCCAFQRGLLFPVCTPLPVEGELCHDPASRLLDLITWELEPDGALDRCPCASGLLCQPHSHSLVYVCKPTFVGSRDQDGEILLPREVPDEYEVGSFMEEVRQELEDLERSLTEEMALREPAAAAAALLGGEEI

In assay [3] the target is LDL receptor-related protein 6 (LRP6) (human (endogenous in human AVICs)) (UniProt O75581).
For assay [4], the target named is T1, Kremen1 (Krm1) (human (endogenous in human AVICs)). The source holds these as a separate data set.

Read-outs that look alike come from different tables or passages of the source. No constants are given. Whether binding was seen depends on the method and setting. In cells and extracts the contact can be indirect. Some results given as binding are weak or reduced against the parent protein; the word gives no strength.

For the molecule “methyltransferase 3 (METTL3) (from UniProt Q86U44 1-580) (enzyme)”, the binding entry in assay [1] is given as “binds”.

As to “Dkk3 (from UniProt Q9UBP4 22-350) (ligand)”, the binding result in assay [2] is listed as “binds”.

B1: Dickkopf2 (Dkk2) (ligand, UniProt Q9UBU2 34-259)
chain: KLNSIKSSLGGETPGQAANRSAGMYQGLAFGGSKKGKNLGQAYPCSSDKECEVGRYCHSPHQGSSACMVCRRKKKRCHRDGMCCPSTRCNNGICIPVTESILTPHIPALDGTRHRDRNHGHYSNHDLGWQNLGRPHTKMSHIKGHEGDPCLRSSDCIEGFCCARHFWTKICKPVLHQGEVCTKQRKKGSHGLEIFQRCDCAKGLSCKVWKDATYSSKARLHVCQKI
With B1, the binding entry in assay [3] and in assay [4] was “binds” each time.

The values are drawn from paper PMC11297286.
